Reference: the supplement of paper PMC11348887
Where a name gives a salt, the structure may show the parent alone. ± gives the standard deviation of the averaged measurements. The list shows a part of the results. Most entries show no effect beyond the scatter of the controls.

tested on: hPSC-derived cortical neurons (WA09); test: nucleus roundness z-score vs screen plate; higher = rounder nuclei (more mature); conditions: 5 µM; treatment: days 7-14 after plating, readout day 21

SMILES	nucleus roundness z-score
CC[C@@H](C)Nc1cc(C(=O)N[C@H]2C[C@H]3CC[C@@H](C2)N3c2ccc(C(=O)C3CC3)cn2)c(C)cc1C(N)=O	-2.89
CN[C@@H]1[C@@H](O[C@H]2O[C@H](CO)[C@@H](N)[C@H](O)[C@H]2O)OC2C[C@@H](N)[C@@H](O[C@H]3[C@H](O)[C@@H](O)[C@H](N)C[C@@H]3N)OC2[C@@H]1O (stereo not given in full) [Apramycin Sulfate]	0.653
COc1cc2ncnc(Nc3cccc(Cl)c3F)c2cc1OC(=O)N1CCN(C)C[C@H]1C	1.16
Cc1ccc(C(=O)Nc2ccc(CN3CCN(C)CC3)c(C(F)(F)F)c2)cc1C#Cc1cnc2[nH]ncc2c1	-5.22
Cc1nc2n(c(=O)c1CCN1CCC(c3noc4cc(F)ccc34)CC1)CCCC2O (stereo not given) [Paliperidone]	1.74
C[n+]1ccccc1/C=N/O [Pralidoxime chloride]	0.99
CN1CCN(C(=O)/C=C/c2ccc([N+](=O)[O-])o2)CC1	-0.925
Cc1nc2n(c(=O)c1CCN1CCC(c3noc4cc(F)ccc34)CC1)CCCC2 [Risperidone]	-0.407
CC(C)(C)c1cnc(CSc2cnc(NC(=O)C3CCNCC3)s2)o1	-3.96
O=C1c2ccccc2C(=O)C1c1ccccc1 [Phenindione]	0.0768
COc1ccccc1OCC(O)CO (stereo not given) [Guaifenesin]	0.485
CCCCCC(=O)O[C@]1(C(C)=O)CC[C@H]2[C@@H]3CCC4=CC(=O)CC[C@]4(C)[C@H]3CC[C@@]21C [Hydroxyprogesterone caproate]	-0.332
COc1cc2c(cc1OC)[C@@H]1Cc3ccc(OC)c(OC)c3CN1CC2 [Rotundine]	-3.43
Cc1nc(NC(=O)N2CCC[C@H]2C(N)=O)sc1-c1ccnc(C(C)(C)C(F)(F)F)c1	-0.103
COc1cc2nc(N3CCN(C(=O)C4CCCO4)CC3)nc(N)c2cc1OC (stereo not given) [Terazosin HCl]	-0.542 ± 1.4
O=C1c2c(O)cc(O)cc2O[C@H](c2cc(O)c(O)c(O)c2)[C@H]1O [Dihydromyricetin]	1.01
CN(C)CCCCC(=O)Nc1ccc(NC(=S)NC(=O)c2ccc(C(C)(C)C)cc2)cc1 [Tenovin-6]	-2.37
Cc1ccc2c(Cl)cc(Cl)c(O)c2n1 [Chlorquinaldol]	0.505
O=C(O)CCc1nc2ccccc2[nH]1 [Procodazole]	0.501
N#CC1(c2ccc(NC(=O)c3cccnc3NCc3ccncc3)cc2)CCCC1 [Apatinib]	-0.876

Two consecutive records out of the list so far, for reference:
SMILES	nucleus roundness z-score
O=C1c2c(O)cc(O)cc2O[C@H](c2cc(O)c(O)c(O)c2)[C@H]1O [Dihydromyricetin]	1.01
CN(C)CCCCC(=O)Nc1ccc(NC(=S)NC(=O)c2ccc(C(C)(C)C)cc2)cc1 [Tenovin-6]	-2.37

Following part:

SMILES	nucleus roundness z-score
COc1cc(Nc2ncc(F)c(Nc3ccc4c(n3)NC(=O)C(C)(C)O4)n2)cc(OC)c1OC [R406 (free base)]	0.326
Nc1nc(=O)[nH]cc1F [Flucytosine]	-0.719
O=C(C=Cc1ccccc1)NC(NC(=S)Nc1ccc(Cl)cc1)C(Cl)(Cl)Cl (stereo not given)	0.00293
O=C(NO)c1cccc(C(=O)NCCc2ccccc2)c1	0.126
CCC(=O)OCC(=O)[C@@]1(OC(=O)CC)[C@@H](C)C[C@H]2[C@@H]3CCC4=CC(=O)C=C[C@]4(C)[C@@]3(Cl)[C@@H](O)C[C@@]21C [Beclomethasone dipropionate]	-1.26
CO[C@H]1CC[C@H](N2C(=O)CNc3ncc(-c4ccc(C(C)(C)O)nc4)nc32)CC1	-2.24
O=C(O)c1cn(-c2ccc(F)cc2)c2cc(N3CCNCC3)c(F)cc2c1=O [Sarafloxacin HCl]	1.11
CN/C(=N\CCSCc1nc[nH]c1C)NC#N [Cimetidine]	-0.124
CC1(C)[C@@H](O)CC[C@]2(C)[C@H]3C(=O)C=C4[C@@H]5C[C@@](C)(C(=O)O)CC[C@]5(C)CC[C@@]4(C)[C@]3(C)CC[C@@H]12 [Enoxolone]	0.0248
C[C@@H](c1ncncc1F)[C@](O)(Cn1cncn1)c1ccc(F)cc1F [Voriconazole]	0.729
CC(=O)C1=C(O)C=C2Oc3c(C(C)=O)c(O)c(C)c(O)c3C2(C)C1=O (single isomer, unassigned; (+)) [(+)-Usniacin]	1.22
Nc1cccc(-c2cc3c(Oc4cccc(O)c4)ncnc3[nH]2)c1	0.811
CC(C)CN(C[C@@H](O)[C@H](Cc1ccccc1)NC(=O)O[C@H]1CCOC1)S(=O)(=O)c1ccc(N)cc1 [Amprenavir]	0.776
C#C[C@]1(O)CC[C@H]2[C@@H]3CCC4=CC(=O)CC[C@@H]4[C@H]3CC[C@@]21C [Norethindrone]	-0.225
C[C@@H]1C/C=C/C=C/C=C/C=C/[C@H](O[C@@H]2O[C@H](C)[C@@H](O)[C@H](N)[C@@H]2O)C[C@@H]2O[C@](O)(C[C@@H](O)C[C@H]3O[C@@H]3/C=C/C(=O)O1)C[C@H](O)[C@H]2C(=O)O [Natamycin]	0.206
O=c1cc(-c2ccc(O)cc2)oc2cc(O)cc(O)c12 [Apigenin]	-0.817
CN1CCN(S(=O)(=O)c2ccc(-c3cnc(N)c(C(=O)Nc4cccnc4)n3)cc2)CC1	-3.01
COc1ccc(/C=C\c2cc(OC)c(OC)c(OC)c2)cc1O [Combretastatin A4]	-11
C[C@H]1COC2=C1C(=O)C(=O)c1c2ccc2c1CCCC2(C)C [Cryptotanshinone]	-0.854
CC(C)C[C@H](NC(=O)[C@@H](NC(=O)c1cccc(-c2ccccc2)n1)[C@@H](C)O)B(O)O	-1.03
